From publication PMC7256045
No constants are given. Whether binding was seen depends on the method and setting. Binding seen in cells or lysates may run through a third protein. Some results given as binding are weak or reduced against the parent protein; the word gives no strength. Tags and fused reporters may be left off the sequences shown.

Biological target: T1, BCAT2 overexpressed in HEK293T cells (Flag-BCAT2) (human) (UniProt O15382)
T1 sequence: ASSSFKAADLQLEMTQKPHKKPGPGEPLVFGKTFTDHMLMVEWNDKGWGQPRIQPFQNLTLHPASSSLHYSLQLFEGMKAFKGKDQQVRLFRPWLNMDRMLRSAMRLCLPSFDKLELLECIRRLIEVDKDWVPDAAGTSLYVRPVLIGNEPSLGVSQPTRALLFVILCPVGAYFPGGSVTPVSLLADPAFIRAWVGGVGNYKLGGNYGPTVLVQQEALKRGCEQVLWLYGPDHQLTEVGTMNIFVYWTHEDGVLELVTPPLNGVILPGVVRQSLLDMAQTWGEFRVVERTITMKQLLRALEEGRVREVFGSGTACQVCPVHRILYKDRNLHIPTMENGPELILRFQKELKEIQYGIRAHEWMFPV
Test: co-IP; SIRT1-7 overexpressed individually with BCAT2 in HEK293T cells; lysis in 0.3% Nonidet P40 buffer (150 mM NaCl, 50 mM Tris-HCl pH 7.5); Flag beads, 4 °C, 3 h; western blot

binding: binds
B1: SIRT4 overexpressed in HEK293T cells (enzyme, UniProt Q9Y6E7 29-314)
chain: IGLFVPASPPLDPEKVKELQRFITLSKRLLVMTGAGISTESGIPDYRSEKVGLYARTDRRPIQHGDFVRSAPIRQRYWARNFVGWPQFSSHQPNPAHWALSTWEKLGKLYWLVTQNVDALHTKAGSRRLTELHGCMDRVLCLDCGEQTPRGVLQERFQVLNPTWSAEAHGLAPDGDVFLSEEQVRSFQVPTCVQCGGHLKPDVVFFGDTVNPDKVDFVHKRVKEADSLLVVGSSLQVYSGYRFILTAWEKKLPIAILNIGPTRSDDLACLKLNSRCGELLPLIDPC
